Laboratory results as given in PubChem BioAssay AID743266 (National Center for Advancing Translational Sciences (NCATS), 2014).
Out of some 410,000 compounds screened, about 310 (0.076%) were called active. This list was built around the results that the source calls inconclusive (neither active nor inactive); the mix of calls is not that of the screen. Calls come from the whole dose curve; as a rule, active = well fitted activation curve with a large enough effect; inconclusive = small, poorly fitted or top-dose-only effect, or another doubt; inactive = no such curve, though single readings can be large or run the other way. Potencies of inconclusive entries are doubtful fits and often do not repeat.

Amino acid sequences for entries named in this document (tags omitted). A change or cut given only in a name is not applied to a line headed by its entry.
UniProt Q03431: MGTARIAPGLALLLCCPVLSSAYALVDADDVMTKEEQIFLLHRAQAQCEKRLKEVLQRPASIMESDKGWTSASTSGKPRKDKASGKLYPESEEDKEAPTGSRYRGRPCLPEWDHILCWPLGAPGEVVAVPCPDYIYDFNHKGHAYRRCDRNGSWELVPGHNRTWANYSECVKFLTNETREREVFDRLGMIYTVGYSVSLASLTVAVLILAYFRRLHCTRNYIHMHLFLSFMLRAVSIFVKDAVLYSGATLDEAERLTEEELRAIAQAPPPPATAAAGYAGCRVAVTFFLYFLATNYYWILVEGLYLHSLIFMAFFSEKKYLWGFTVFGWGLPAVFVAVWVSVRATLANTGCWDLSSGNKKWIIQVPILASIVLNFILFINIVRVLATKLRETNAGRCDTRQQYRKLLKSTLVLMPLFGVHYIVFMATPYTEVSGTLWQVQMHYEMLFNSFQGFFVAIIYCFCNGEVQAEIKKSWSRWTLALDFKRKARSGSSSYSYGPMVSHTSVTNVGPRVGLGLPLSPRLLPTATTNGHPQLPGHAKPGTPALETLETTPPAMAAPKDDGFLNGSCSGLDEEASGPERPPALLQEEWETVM

The compounds below were run against Parathyroid hormone/parathyroid hormone-related peptide receptor (Homo sapiens) (UniProt Q03431) (assay: qHTS for PTHR1 Agonists: Primary Screen). Settings: HEK293 GP2 PTHR1 cells, GloSensor cAMP luminescence, 1 h; activation: at 115 µM (top of the series) unless noted; series mostly up to 115 µM.
How it was run: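 HEK-293-derived GP2 cells expressing PTHR1 and a GloSensor cAMP reporter, 3,000/well, plated overnight, given luciferin plus IBMX (each 0.5 mM as added) for 1 h at 37 °C, then compound for 1 h at 37 °C. Luminescence was read after 15 min at room temperature.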
Note: nearly all actives have a fitted effect of over 55% in size.
Potency is the fitted concentration of half-maximal effect.

SMILES | outcome | Potency | activation
COc1ccc(CCNC(=O)CCCn2nc(C)c([N+](=O)[O-])c2C)cc1OC | inactive |  | 
COc1ccc(NC(=O)CSc2nc3nc(C)cc(C)n3n2)cc1 |  | inconclusive: 39.8 µM [activator, partial curve, poor fit] | 
O=C(NCCCN1CCCC1=O)c1cc2ccccc2o1 |  | inconclusive: 56.2 µM [activator, single point] | 
Cc1[nH]nc2c1-c1nc3ccccc3nc1C(C)(C)C2 |  | active: 28.2 µM | 
Cc1ccc(C)c(Cn2c(=O)c3c(nc4n3CCN4c3ccc(F)cc3)n(C)c2=O)c1 |  | inconclusive: 50.1 µM [activator, partial curve] | 
COc1cc(-c2nc(-c3cccc(C)c3)no2)cc(OC)c1OC |  |  | inconclusive: 30.3% [activator]
NC(=O)c1ccc(Cl)c2ccccc12 |  | inconclusive: 6.31 µM [activator, full curve] | 
O=C(NOCc1ccccc1)c1ccc(Cl)cc1 |  |  | inactive: -5.26%
C=COCCNC(=O)Nc1ccc(Cl)c(Cl)c1 |  |  | inconclusive: 34.1% [activator] [at 57.5 µM]
C#CCOCCOCCOCCNc1nc(N2CCN(C(=O)CCCCCCCCCCNC(=O)[C@H](CCCCN)n3cc(C[C@@H](C)CC)nn3)CC2)nc(N2CCN(C(=O)CCCCCCCCCCNC(=O)[C@H](CCCCN)n3cc(C[C@@H](C)CC)nn3)CC2)n1 |  |  | inactive: -32.6%
O=C(CCCN1C(=O)/C(=C/c2cccs2)SC1=S)NNC(=O)c1cccnc1 |  | inconclusive: 126 µM [activator, single point] | 
CC(=O)NC(C(=O)c1ccccc1)N1CCCCC1 (centres undefined) |  |  | inconclusive: -42.3% [activator]
COc1cccc(NC(=O)CN2C(=O)NC3(CCCCCC3)C2=O)c1 |  |  | inconclusive: 15.2% [activator]
CCCc1cc(=O)[nH]c(SCC(=O)Nc2ccc3ccccc3c2)n1 |  | inconclusive: 63.1 µM [activator, partial curve, poor fit] | 
Cc1ccc(S(=O)(=O)Nc2ccc(NC(=O)Nc3ccc(F)cc3F)cc2)cc1 |  |  | inactive: -24.9%
Cc1ccc(C(=O)n2nc(-c3ccco3)nc2N)cc1 |  | inconclusive: 0.767 µM [activator, full curve, poor fit] | 
Cc1ccc(CN2CCN(/N=C/c3cccs3)CC2)cc1 | inactive |  | 
CC(C)(CNCc1ccccc1)NS(=O)(=O)c1ccc(Cl)cc1 |  |  | inactive: -4.68%
Cc1cc(OCCn2cncn2)ccc1[N+](=O)[O-] |  | inconclusive: 79.4 µM [activator, partial curve, poor fit] | 
CC(C)C(NS(=O)(=O)c1ccc2c(c1)OCCCO2)C(=O)O (centres undefined) |  | inconclusive: 141 µM [activator, single point] | 
O=C(Nc1ccc(Oc2ccc(C(F)(F)F)cn2)c(Cl)c1)C1CC1 |  |  | inconclusive: -51.9% [activator]
CNC(=O)C1CCC(Cn2c(=O)c3sccc3n(CC(=O)N3CCCCC3C)c2=O)CC1 (centres undefined) |  | inconclusive: 50.1 µM [activator, partial curve, poor fit] | 
O=C(CCS(=O)(=O)c1ccc(Br)s1)Nc1c(F)cccc1F |  |  | inconclusive: -66.4% [activator]

Part of the list above in order of molecular weight, largest number first.
SMILES | outcome | Potency | activation
O=C(CCS(=O)(=O)c1ccc(Br)s1)Nc1c(F)cccc1F |  |  | inconclusive: -66.4% [activator]
Cc1ccc(CN2CCN(/N=C/c3cccs3)CC2)cc1 | inactive |  | 
Cc1[nH]nc2c1-c1nc3ccccc3nc1C(C)(C)C2 |  | active: 28.2 µM | 

(list continues)

SMILES | outcome | Potency | activation
COc1cccc(-c2cc(C(F)(F)F)n3nc(-c4ccc(C)cc4)cc3n2)c1 |  | inconclusive: 31.6 µM [activator, partial curve, poor fit] | 
Cc1ccc(CNC(=O)NCc2ccccc2)cc1 | inactive |  | 
CN1CCN(C(=O)c2cc(S(=O)(=O)Nc3ccccc3F)c(Cl)cc2Cl)CC1 |  | inconclusive: 2.82 µM [activator, full curve, poor fit] | 
Cc1nc2ccccc2c2nc(NC(=O)Cc3ccccc3)nn12 |  |  | inconclusive: 32.3% [activator] [at 57.5 µM]
COc1cccc(/C=N/Nc2nc3ccccc3[nH]2)c1O |  | inconclusive: 20 µM [activator, partial curve, poor fit] | 
COc1cc(C)c(CNC2CCCCC2)cc1C |  | inconclusive: 31.6 µM [activator, single point] | 
O=C(O)c1ccc2c(=O)n(-c3ccc(F)cc3)c(=S)[nH]c2c1 |  |  | inconclusive: 46% [activator]
CN(C)CCCN1c2ccccc2Sc2ccc(Cl)cc21 |  |  | inconclusive: 3.28% [activator]
O=C1CCC2CCCCC2(O)O1 (centres undefined) |  |  | inactive: -16.3% [at 57.5 µM]
COc1ccc(-n2c(=O)[nH]cc(C(=O)Nc3ccccc3)c2=O)cc1 |  | inconclusive: 79.4 µM [activator, partial curve, poor fit] | 
O=C(CCNS(=O)(=O)c1ccccc1)NCC1CCCCC1 |  | inconclusive: 112 µM [activator, single point] | 
COc1cccc(C(C(=O)NC2CCCC2)N(C(=O)c2ccco2)C2CC2)c1OC (centres undefined) |  | inconclusive: 35.5 µM [activator, single point] | 
COCC(C)NS(=O)(=O)c1ccc(NC(=O)C(Cc2ccccc2)NC(N)=O)cc1 (centres undefined) | inactive [at 57.5 µM] |  | 
COc1ccc(NC(=O)Nc2nnc(SCC(=O)Nc3cccc(C)c3C)s2)cc1 | inactive |  | 
CSc1ccccc1NC(=O)CN(C)CC(=O)Nc1ccccc1F |  |  | inactive: -9.88%
Cc1ccc(C2C=C(c3ccc(Cl)cc3)Nc3nc(NC(=O)CCC(=O)O)nn32)cc1 (centres undefined) |  | inconclusive: 100 µM [activator, partial curve, poor fit] | 
O=C(N/N=C/c1ccc(Br)cc1)c1cc[n+]([O-])cc1 |  |  | inconclusive: 35.6% [activator]
CC(C)Cc1cc(C(=O)N2CCC(N3CCC(C(=O)N4CCOCC4)CC3)CC2)n[nH]1 |  | inconclusive: 126 µM [activator, single point] | 
CCN(CC)CCCN(Cc1cc2cc3c(cc2[nH]c1=O)OCO3)C(=S)NCCCOC |  | inconclusive: 44.7 µM [activator, partial curve, poor fit] | 
O=C(NNC(=O)c1ccc2[nH]c(=O)c(=O)[nH]c2c1)c1cccc(Br)c1 |  | inconclusive: 44.7 µM [activator, partial curve, poor fit] | 
Cc1ccc(C2CCN(C(=O)c3cnn(-c4cccc(Cl)c4)c3C3CCN(C(=O)OC(C)(C)C)CC3)C2)cc1 (centres undefined) |  |  | inactive: -15.1%
COc1ccccc1CCNC(=O)c1ccc(NC(=O)CC2SC(N3CCCC3)=NC2=O)cc1 (centres undefined) |  |  | inactive: -33.4%
Cc1ccc2nc(SCC(=O)N(CC(C)C)c3c(N)n(CC(C)C)c(=O)[nH]c3=O)[nH]c2c1 |  | inconclusive: 8.91 µM [activator, partial curve, poor fit] | 

SMILES | outcome | Potency | activation
COc1ccc(C2C(C(N)=O)=C(C)Nc3nc(SCc4ccccc4Cl)nn32)cc1OC (centres undefined) |  | inconclusive: 28.2 µM [activator, partial curve, poor fit] | 
CCOC(=O)c1ccc(N2C(=O)c3n[nH]c(C)c3C2c2cccc(Br)c2)cc1 (centres undefined) |  |  | inconclusive: -89.3% [activator]
COc1ccc(C(=O)c2cn(Cc3ccccc3F)c3cc4c(cc3c2=O)OCO4)cc1 |  | inconclusive: 56.2 µM [activator, partial curve, poor fit] | 
Cn1c(=O)c2c(ncn2CC(=O)NC2CCCCC2)n(C)c1=O |  | inconclusive: 31.6 µM [activator, full curve, poor fit] | 
O=c1[nH]c2cnn(-c3ccccc3)c2c(=O)n1O |  | inconclusive: 89.1 µM [activator, partial curve, poor fit] | 
NNC(=O)c1ccc(Cn2cccn2)o1 |  |  | inactive: -4.9%
COc1ccccc1C(=O)Nc1ccc2oc(-c3cccc(Cl)c3Cl)nc2c1 |  |  | inconclusive: 47.3% [activator]
COC(=O)c1[nH]c(C)c(/C(O)=C2\C(=O)C(=O)N(CCN(C)C)C2c2ccccc2OC)c1C (centres undefined) |  | inconclusive: 39.8 µM [activator, single point] | 
Cc1[nH]c(=O)[nH]c(=O)c1NS(=O)(=O)c1ccc2c(c1)CCCC2 |  | inconclusive: 39.8 µM [activator, single point] | 
O=C(Nc1ccccc1Cl)C(Cl)C(=O)c1ccccc1 (centres undefined) |  | inconclusive: 126 µM [activator, single point] | 
CCOc1ccc(CCNC(=O)c2cnc3sc(N(CC)CC)nn3c2=O)cc1OCC |  | inconclusive: 44.7 µM [activator, partial curve, poor fit] | 
COc1ccc(S(=O)(=O)NCCN2CCOCC2)cc1Br |  | inconclusive: 12.6 µM [activator, partial curve, poor fit] | 
Cc1cc([N+](=O)[O-])nn1CC(=O)NCc1cccs1 |  | inconclusive: 39.8 µM [activator, single point] | 
CC(C)c1ccc(NC(=O)c2cc3sc(Cl)cc3n2C)cc1 |  |  | inactive: -2.86%
Cc1sc2ncnc(NC3CCN(Cc4ccccc4)CC3)c2c1C |  |  | inactive: -19.6%
CN1CCC(N(C)S(=O)(=O)c2ccc(Cl)cc2)CC1 |  |  | inactive: -24.9%
Cc1ccc(-c2cc(C(=O)NCc3cnn(C)c3C)c3ccccc3n2)cc1C | inactive |  | 
CC(C)n1c(NCc2nc3ccccc3n2C)nc2ccccc21 |  | inconclusive: 3.98 µM [activator, single point] | 
O=[N+]([O-])c1cccc(/C=N/NC2=NS(=O)(=O)c3ccccc32)c1 |  | inconclusive: 50.1 µM [activator, partial curve, poor fit] | 
O=S(=O)(c1ccc(Br)s1)N1CCNCC1 |  |  | inconclusive: 35.5% [activator]
CCCCC[C@H](O)/C=C/[C@@H]1[C@@H](C/C=C\CCCC(=O)OC)[C@@H](O)C[C@H]1O |  | inconclusive: 3.55 µM [activator, partial curve, poor fit] | 
COc1cccc(-n2c(-c3ccccc3)c[nH]c2=S)c1 |  |  | inactive: -7.94%
Nn1c(SCC(=O)NCc2ccccc2)nnc1C1CC1 |  | inconclusive: 35.5 µM [activator, single point] | 

Single records, as listed above.
`COC(=O)c1[nH]c(C)c(/C(O)=C2\C(=O)C(=O)N(CCN(C)C)C2c2ccccc2OC)c1C` (centres undefined) as listed: Potency: inconclusive: 39.8 µM [activator, single point]
`Cc1sc2ncnc(NC3CCN(Cc4ccccc4)CC3)c2c1C` as listed: activation: inactive: -19.6%
